Data as given in PubChem BioAssay AID2517 (National Center for Advancing Translational Sciences (NCATS), 2010).
Where “and” joins values, the source holds several entries; their conditions need not be identical. Equal entries are not always repeated. About 1,200 (0.34%) of roughly 350,000 compounds were called active. Inconclusive results, whose numbers are uncertain, are shown with a selection of clear calls. Calls follow the shape of the dose curve; as a rule, active = well fitted inhibition curve with a large enough effect; inconclusive = small, poorly fitted or top-dose-only effect; inactive = no such curve, though single readings can be large or run the other way. A potency beside an inconclusive call is a rough fit, not a confirmed value. Starred links: 1 amine or outer side, 2 acyl side, 3 side chain; linkers in the order of their positions; H or OH if unused. Positions of bridges follow the written chain, without caps; N, C: chain ends. Non-standard residues stand in square brackets, D forms with d. Residues, ends and D or L forms follow the SMILES beside them. ξ: configuration not given here. hSer(Ph(2-I,4-NO2,6-CO)) = O=C([C@H](CCOc1c(I)cc([N+](=O)[O-])cc1C(=O)[*:3])N[*:1])[*:2]; ξD = NC(CC(=O)O)C(=O)O

The chains behind the UniProt entries cited, without tags or fusion partners.
UniProt P27695, whole entry, looked up: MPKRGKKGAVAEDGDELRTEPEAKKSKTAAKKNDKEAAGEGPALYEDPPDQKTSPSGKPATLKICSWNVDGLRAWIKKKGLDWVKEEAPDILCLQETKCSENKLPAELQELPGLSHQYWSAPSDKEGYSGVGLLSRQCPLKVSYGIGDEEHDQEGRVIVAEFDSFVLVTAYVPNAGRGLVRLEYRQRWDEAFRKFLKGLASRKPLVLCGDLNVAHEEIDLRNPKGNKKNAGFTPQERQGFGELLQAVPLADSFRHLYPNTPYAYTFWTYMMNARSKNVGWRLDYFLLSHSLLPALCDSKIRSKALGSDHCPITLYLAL

What follows are compounds tested against DNA repair nuclease/redox regulator APEX1 (Homo sapiens) (UniProt P27695) (assay: qHTS Assay for Inhibitors of the Human Apurinic/apyrimidinic Endonuclease 1 (APE1)). Settings: recombinant APE1, TAMRA/BHQ-2 abasic DNA cleavage fluorescence; activity change, negative = inhibition: at 65.8 µM (top of the series).
Outline: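 APE1 at 0.75 nM final was preincubated with compound 15 min at room temperature, then 50 nM double-stranded THF abasic-site substrate (5'-TAMRA/3'-BHQ-2) was added. Fluorescence (ex 525/em 598 nm) was read kinetically; third-minus-first read gave activity.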
Also: nearly all actives have a fitted effect of over 55% in size.
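For activity change, negative = inhibition in this document: plate controls were vehicle for no effect and reference inhibitor for full effect.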
Potency is read from the fitted curve at half-maximal effect.

Structure (SMILES)	Potency	activity change, negative = inhibition
CCC(C)(NC(=O)c1ccccn1)C(=O)NC1CCCC1 (centres undefined)	inconclusive: 3.16 µM [inhibitor, single point]	
CCOc1cc(C2C(C(=O)OC)=C(C)N=C3SC(C)C(=O)N32)ccc1OC(C)=O (centres undefined)	inconclusive: 39.8 µM [inhibitor, single point]	
Cc1ccc(NC(=O)CN(C)C(=O)COc2cc(F)ccc2[N+](=O)[O-])cc1	inconclusive: 25.1 µM [inhibitor, single point]	
CCCn1nnc(NC(=S)NC(=O)c2ccc(-c3ccc(Br)cc3)o2)n1	inconclusive: 20 µM [inhibitor, partial curve, poor fit]	
Cn1c(SCC(=O)NCc2ccco2)nnc1-c1ccc(S(=O)(=O)N2CCOCC2)cc1	inconclusive: 39.8 µM [inhibitor, single point]	
CC(=O)Nc1ccccc1OC(C)C(=O)NC(C)c1ccc(F)cc1 (centres undefined)	inconclusive: 89.1 µM [inhibitor, partial curve, poor fit]	
C#CCCCO/N=C1/C[C@@H](O)[C@@H](O)[C@@H]2[C@@H]3C(=O)N(CC)C(=O)[C@H]3CC[C@H]12	inconclusive: 8.91 µM [inhibitor, single point]	
Cc1cccc(C)c1NC(=O)CSCC(=O)O		inactive: -3.3%
Cc1nc(-c2cccc(C(F)(F)F)c2)sc1C(=O)O	inconclusive: 4.47 µM [inhibitor, single point]	
C=C1c2cccc(O)c2C(O)=C2C(=O)[C@]3(O)C(O)=C(C(N)=O)C(=O)[C@@H](N(C)C)[C@@H]3[C@@H](O)[C@H]12	active: 1.26 µM and active: 2.51 µM	
CCCCCn1c(CN2CCCCC2C)nc2c1c(=O)n(C)c(=O)n2C (centres undefined)	inconclusive: 44.7 µM [inhibitor, single point]	
O=[N+]([O-])c1cc(S(=O)(=O)Nc2ccccc2)ccc1-n1nnc2ccccc21	inconclusive: 56.2 µM [inhibitor, partial curve, poor fit]	
CCOC(=O)N1CCN(C(=S)NC(=O)c2cncc(Br)c2)CC1	inconclusive: 39.8 µM [inhibitor, single point]	
Cc1cc(N/N=C/c2ccc(O)cc2)c2cccc(C)c2n1	inconclusive: 23.8 µM [inhibitor, partial curve]	
COC(=O)c1ccccc1NC(=O)CN(c1cc(OC)ccc1OC)S(C)(=O)=O	inconclusive: 39.8 µM [inhibitor, single point]	
CCOC(=O)CC(NC(=O)Cc1ccc(F)cc1)c1ccccc1Cl (centres undefined)	inconclusive: 31.6 µM [inhibitor, single point]	
CSc1ccc(C(=O)NCC(=O)O)cc1[N+](=O)[O-]	inconclusive: 3.55 µM [inhibitor, single point]	
Cc1cc(/C=C2\C(=O)NN(c3ccccc3)C2=O)c(C)n1-c1ccccc1O	inconclusive: 39.8 µM [inhibitor, single point]	
Cc1ccccc1OCC(=O)N/N=C/c1sc(=O)n(Cc2cccc(C(=O)O)c2)c1Cl		inactive: -2.78%
Nc1cc(=O)[nH]c(=O)n1Cc1ccccc1	inconclusive: 3.55 µM [inhibitor, single point]	
O=C(CSc1nncn1-c1ccccc1)Nc1ccc(N2CCOCC2)cc1		inactive: 1.45%
COc1c(S(=O)(=O)N2CCCC2)ccc(Cl)c1Cl	inconclusive: 100 µM [inhibitor, partial curve, poor fit]	

Of the compounds above, 3 contain a nitro group on carbon:
Structure (SMILES)	Potency	activity change, negative = inhibition
Cc1ccc(NC(=O)CN(C)C(=O)COc2cc(F)ccc2[N+](=O)[O-])cc1	inconclusive: 25.1 µM [inhibitor, single point]	
O=[N+]([O-])c1cc(S(=O)(=O)Nc2ccccc2)ccc1-n1nnc2ccccc21	inconclusive: 56.2 µM [inhibitor, partial curve, poor fit]	
CSc1ccc(C(=O)NCC(=O)O)cc1[N+](=O)[O-]	inconclusive: 3.55 µM [inhibitor, single point]	

Continued:

Structure (SMILES)	Potency	activity change, negative = inhibition
COc1ccc(S(=O)(=O)c2c(N)n(Cc3ccco3)c3nc4ccccc4nc23)cc1		inactive: -7.1%
CCCn1c(C)cc(/C=C(\C#N)C(=O)O)c1C		inactive: 2.67%
CCOc1cc(N2CCOCC2)c(OCC)cc1NC(=O)c1ccco1	inconclusive: 39.8 µM [inhibitor, single point]	
CCOC(=O)N/N=C1/C[C@@H](O)[C@@H](O)[C@@H]2[C@@H]3C(=O)N(C[C@@H]4CCCO4)C(=O)[C@H]3CC[C@H]12	inconclusive: 3.16 µM [inhibitor, single point]	
Cn1cc(/C=C2\SC(=S)N(N3CCOCC3)C2=O)c2ccccc21		inactive: -0.759%
Cc1ccc(C(=O)N/C(=C/c2ccco2)C(=O)NCCc2c[nH]c3ccccc23)cc1	inconclusive: 22.4 µM [inhibitor, single point]	
NC(=O)c1ccsc1NC(=O)COC(=O)c1cc(=O)[nH]c2ccccc12		inactive: 20.6%
CC1=NN(c2ccccc2)C(=O)C1C(=O)c1ccc([N+](=O)[O-])cc1 (centres undefined)	inconclusive: 0.0045 µM [inhibitor, full curve, poor fit]	
C1CCCC(NC2=NCCO2)CCC1	inconclusive: 3.55 µM [inhibitor, single point]	
NC(=O)N/N=C/c1ccc(-c2ccc(S(=O)(=O)Nc3ncccn3)cc2)o1		inactive: -5.21%
C#CCN1C(=O)S/C(=C\c2ccc(-c3ccc(Cl)c(C(=O)O)c3)o2)C1=O		inactive: 3.65%
C/C(C/C(C)=C1/SC(=S)NC1=O)=C1\SC(=S)NC1=O	inconclusive: 39.8 µM [inhibitor, single point]	
O=C(N/N=C/c1ccc(N2CCCCC2)o1)c1ccccc1	inconclusive: 0.126 µM [inhibitor, full curve, poor fit]	
CCn1c(/C=C/N(C(C)=O)c2ccccc2)[n+](CC)c2ccc(Cl)cc21		inactive: 0.455%
COc1ccc(S(=O)(=O)N(C(=O)C(C)C)c2ccc3oc(=O)sc3c2)cc1		inactive: 0.199%
CN(c1ccccc1C(=O)O)S(=O)(=O)c1ccc2c3c(cccc13)C(=O)N2	inconclusive: 31.6 µM [inhibitor, partial curve]	
COc1ccc(/C=N/Nc2nncc3ccccc23)cc1		inactive: -3.78%
CN1c2ccccc2C(=O)/C(=C\Nc2ncccn2)S1(=O)=O	inconclusive: 3.55 µM [inhibitor, full curve]	
COC(=O)[C@@]1(Cc2ccc(F)cc2)[C@H]2c3cc(C(=O)N4CCCC4)n(CCc4c[nH]c5ccc(OC)cc45)c3C[C@H]2CN1C(=O)c1ccccc1	inconclusive: 39.8 µM [inhibitor, partial curve]	
CN(C)S(=O)(=O)c1cccc(C(=O)NC(=S)N(CCC#N)Cc2cccnc2)c1		inactive: -2.45%
CC(C(=O)OCC(=O)c1ccc(Br)cc1)N1C(=O)C2C3CCC(C3)C2C1=O (centres undefined)		inactive: -6.84%
Cc1cc(N2C(=O)C(O)=C(C(=O)c3cc4ccccc4o3)C2c2cccc(Br)c2)no1 (centres undefined)		inactive: 1.24%

Structure (SMILES)	Potency	activity change, negative = inhibition
COc1ccccc1NS(=O)(=O)c1cccc(C(=O)NCC(c2ccco2)N2CCCC2)c1 (centres undefined)	inconclusive: 37.7 µM [inhibitor, single point]	
O=C(O)c1cc(N(Cc2ccccc2O)Cc2cc(O)ccc2O)ccc1O	inconclusive: 39.8 µM [inhibitor, single point] and inconclusive: 11.2 µM [inhibitor, partial curve]	
Cc1cccc(NC(=O)CN2C(=O)N/C(=C\c3ccc(-c4cccc(C(=O)O)c4)o3)C2=O)c1	inconclusive: 35.5 µM [inhibitor, single point]	
CC(NS(=O)(=O)c1ccc(Cl)cc1)C(=O)NCc1ccco1 (centres undefined)	inconclusive: 31.6 µM [inhibitor, single point]	
C=CC[C@@H](CC(=O)N(CCO)Cc1ccccc1)C(=O)N[C@H](COC(=O)[C@@H](CC=C)Cc1ccc(F)cc1)C(C)(C)C		inactive: -22.9%
O=C(CSc1nnc(-c2ccccc2F)n1C1CC1)NCc1ccco1		inactive: 4.13%
O=C(N/N=C/c1ccc([N+](=O)[O-])o1)C(=O)Nc1ccc(C(=O)O)cc1		inactive: -8.34%
O=C(COC(=O)Cc1ccc(Cl)c(Cl)c1)Nc1ccc2[nH]c(=O)[nH]c2c1		inactive: 10.6%
O=C(O)C1Cc2ccccc2CN1S(=O)(=O)c1ccc2ccccc2c1 (centres undefined)	inconclusive: 44.7 µM [inhibitor, single point]	
Cc1c(/C(O)=C2\C(=O)C(=O)N(CCN(C)C)C2c2ccccc2)cnn1-c1ccccc1 (centres undefined)	inconclusive: 0.0025 µM [inhibitor, full curve, poor fit]	
C=CCn1c(SCC(=O)N(CCOC)c2c(N)n(CC(C)C)c(=O)[nH]c2=O)nc2ccccc21	inconclusive: 26.7 µM [inhibitor, single point]	
O=C(CN1CCN(c2ccc(O)cc2)CC1)Nc1cc(S(=O)(=O)N2CCOCC2)ccc1Cl	inconclusive: 31.6 µM [inhibitor, single point]	
COc1ccc(NC(=O)c2ccc(OCc3c(C)noc3C)c(OC)c2)cn1		inactive: -0.757%
Nc1[nH]c(N=NC(=O)c2ccccc2)c2ccccc12		inactive: 1.62%
C[C@@H]1NC(=O)[C@H](CC(N)=O)NC(=O)c2cc([N+](=O)[O-])cc(I)c2OCC[C@@H](C(=O)NC(CC(=O)O)C(N)=O)NC1=O (some centres undefined) (NA[hSer(Ph(2-I,4-NO2,6-CO))][ξD]-NH2; lactam N-3)	inconclusive: 3.98 µM [inhibitor, single point]	
O=C(C1CCCN1S(=O)(=O)c1cccc2nsnc12)N1CCCCCC1 (centres undefined)	inconclusive: 0.0224 µM [inhibitor, full curve, poor fit]	
COC(=O)C1=C(C)N(CC2CCCO2)C(=O)/C1=C\c1ccc(O)cc1 (centres undefined)	inconclusive: 7.94 µM [inhibitor, single point]	
O=C(O)Cn1cc(/C=N/NC(=O)c2cc3cc(Br)ccc3o2)c2ccccc21	inconclusive: 39.8 µM [inhibitor, single point]	
CC(=O)Nc1cccc(Cl)c1C(=O)O		inactive: -2.12%
CCOc1ccccc1NC(=S)N1CCC(c2nc3ccccc3o2)CC1	inconclusive: 8.91 µM [inhibitor, single point]	

Structures shown so far containing a cyano group (two):
Structure (SMILES)	Potency	activity change, negative = inhibition
CCCn1c(C)cc(/C=C(\C#N)C(=O)O)c1C		inactive: 2.67%
CN(C)S(=O)(=O)c1cccc(C(=O)NC(=S)N(CCC#N)Cc2cccnc2)c1		inactive: -2.45%
